Results on ten molecules are retold here after paper PMC3870133.

The chains behind the UniProt entries cited, without tags or fusion partners. Where a name states a change or a piece, a line headed by the entry shows the natural chain unless it says otherwise.
UniProt P30561: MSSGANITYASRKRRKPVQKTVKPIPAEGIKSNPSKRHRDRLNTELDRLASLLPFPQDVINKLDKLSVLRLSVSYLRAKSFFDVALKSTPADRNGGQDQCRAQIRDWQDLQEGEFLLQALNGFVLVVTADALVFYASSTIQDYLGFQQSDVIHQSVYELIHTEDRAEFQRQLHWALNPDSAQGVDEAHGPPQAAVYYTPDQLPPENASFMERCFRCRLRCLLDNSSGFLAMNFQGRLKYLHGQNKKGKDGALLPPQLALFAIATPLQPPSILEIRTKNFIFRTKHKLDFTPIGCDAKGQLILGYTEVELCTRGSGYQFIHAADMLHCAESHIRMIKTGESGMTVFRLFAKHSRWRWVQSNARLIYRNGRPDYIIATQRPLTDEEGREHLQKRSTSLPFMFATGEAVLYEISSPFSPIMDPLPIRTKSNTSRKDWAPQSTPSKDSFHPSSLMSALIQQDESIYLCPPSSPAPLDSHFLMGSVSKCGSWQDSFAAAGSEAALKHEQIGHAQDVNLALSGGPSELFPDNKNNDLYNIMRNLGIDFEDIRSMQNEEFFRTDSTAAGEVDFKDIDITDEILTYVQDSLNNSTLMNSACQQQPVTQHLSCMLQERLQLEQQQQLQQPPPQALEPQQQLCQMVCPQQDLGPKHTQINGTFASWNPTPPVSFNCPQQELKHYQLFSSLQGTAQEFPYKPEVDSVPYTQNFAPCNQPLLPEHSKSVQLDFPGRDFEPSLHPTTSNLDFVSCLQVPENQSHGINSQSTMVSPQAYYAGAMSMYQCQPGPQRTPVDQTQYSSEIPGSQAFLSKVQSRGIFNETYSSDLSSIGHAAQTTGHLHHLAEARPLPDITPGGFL
UniProt Q9JLV1: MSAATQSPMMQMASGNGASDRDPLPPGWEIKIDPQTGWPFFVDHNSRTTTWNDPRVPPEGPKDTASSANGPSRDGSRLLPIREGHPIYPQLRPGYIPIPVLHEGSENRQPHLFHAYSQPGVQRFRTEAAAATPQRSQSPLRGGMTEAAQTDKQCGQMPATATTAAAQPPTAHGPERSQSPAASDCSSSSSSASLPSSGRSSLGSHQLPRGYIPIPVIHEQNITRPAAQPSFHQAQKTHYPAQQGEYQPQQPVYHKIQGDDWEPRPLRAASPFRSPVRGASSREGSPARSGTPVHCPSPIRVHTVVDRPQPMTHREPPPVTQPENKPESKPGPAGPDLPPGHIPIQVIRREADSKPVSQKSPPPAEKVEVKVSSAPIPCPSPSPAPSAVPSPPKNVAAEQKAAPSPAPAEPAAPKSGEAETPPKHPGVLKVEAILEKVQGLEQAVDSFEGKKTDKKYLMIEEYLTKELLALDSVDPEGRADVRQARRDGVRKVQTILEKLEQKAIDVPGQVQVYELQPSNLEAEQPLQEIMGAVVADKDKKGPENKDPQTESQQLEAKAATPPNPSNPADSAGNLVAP

The chains are these.
B1: activated leukocyte cell adhesion molecule CD166 (Alcam) (protein, UniProt Q61490 28-583)
chain: WYTVNSAYGDTIVMPCRLDVPQNLMFGKWKYEKPDGSPVFIAFRSSTKKSVQYDDVPEYKDRLSLSENYTLSIANAKISDEKRFVCMLVTEDNVFEAPTLVKVFKQPSKPEIVNKAPFLETDQLKKLGDCISRDSYPDGNITWYRNGKVLQPVEGEVAILFKKEIDPGTQLYTVTSSLEYKTTRSDIQMPFTCSVTYYGPSGQKTIYSEQEIFDIYYPTEQVTIQVLPPKNAIKEGDNITLQCLGNGNPPPEEFMFYLPGQPEGIRSSNTYTLTDVRRNATGDYKCSLIDKRNMAASTTITVHYLDLSLNPSGEVTKQIGDTLPVSCTISASRNATVVWMKDNIRLRSSPSFSSLHYQDAGNYVCETALQEVEGLKKRESLTLIVEGKPQIKMTKKTDPSGLSKTIICHVEGFPKPAIHWTITGSGSVINQTEESPYINGRYYSKIIISPEENVTLTCTAENQLERTVNSLNVSAISIPEHDEADDISDENREKVNDQAKLIVGIVVGLLLAALVAGVVYWLYMKKSKTASKHVNKDLGNMEENKKLEENNHKTEA
B2: aryl-hydrocarbon receptor-interacting protein (AIP) (protein, UniProt O08915 1-330)
chain: MADLIARLREDGIQKRVIQEGRGELPDFQDGTKATFHFRTLHSDNEGSVIDDSRTRGKPMELIVGKKFKLPVWETIVCTMREGEIAQFLCDIKHVVLYPLVAKSLRNIAEGKDPLEGQRHCCGIAQMHEHSSLGHADLDALQQNPQPLIFHIEMLKVESPGTYQQDPWAMTDEEKAKAVPVIHQEGNRLYREGQVKEAAAKYYDAIACLKNLQMKEQPGSPDWIQLDLQITPLLLNYCQCKLVAQEYYEVLDHCSSILNKYDDNVKAYFKRGKAHAAVWNAQEAQADFAKVLELDPALAPVVSRELRALETRIRQKDEEDKARFRGIFSH
B3: cAMP responsive element binding protein 3-like 3 (Creb3l3) (protein, UniProt Q91XE9 1-479)
chain: MDGDIAAGKMASPVCAMAPLDSMEVLDLLFDRQDGILRNVELAEGWILAREEQKVLLNSDSDEFLNCILGPGDSDPSSPLWSPADSDSGISEDLPSDPQDTPPRSGTEPANTVARCHTREQGKGPCPSYLPSTPCPEPPRTQVQESSVAIDLDMWSTDTLYPEEPAGSPSRFNLTVKELLLSGGSGDLQQHSLAASQLLGPGSGHCQELVLTEDEKKLLAKEGVTLPTQLPLTKYEERVLKKIRRKIRNKQSAQESRKKKKEYIDGLENRMSACTAQNQELQRKVLHLEKQNLSLLEQLKHLQALVVQSTSKPAHAGTCIAVLLLSFALIILPSISPFNSNKVDSPGDFVPVRVFSRTLHNHAASRVAPDVTPGSEVPGPWPDVGTPHKGPSSGGLSADWGNFLEIPMLDNLTEELDNSTLVLANSTEDLGRATLLDWVASEPLLSPGRVGLEIPGEMWLSWVPRWLRVRLVQDALGVL
B4: Enhancer-trap-locus-1 (Smarcad SWI/SNF-related) (protein, UniProt Q04692 1-1021)
chain: MNLFNLDRFRFEKRSKIEEAPEAAPQPSQARPSSPISLSAEEENAEGEGSRANTPDSDVTEKTEDSSVPEPPDNERKASLSCFQNQRAIQEYIDLSSDTEDVSPNCSSTVQEKKFSKDTVIIVSEPSEDEESHDLPSVTRRNDSSELEDLSELEDLKDAKLQTLKELFPQRSDSDLLKLIESTSTMDGAIAAALLMFGDAGGGPRKRKLSSSSEEDDVNDDQSVKQPRGDRGEESNESAEASSNWEKQESIVLKLQKEFPNFDKQELREVLKEHEWMYTEALESLKVFAEDQDVQCASQSEVTNGKEVARNQNYSKNATKIKMKQKISVKPQNGFNKKRKKNVFNPKKAVEDSEYDSGSDAGSSLDEDYSSCEEVMEDGYKGKILHFLQVSSIAELTLIPKCSQKKAQKITELRPFNNWEALFTKMSKINGLSEDLIWNCKTVIQERDVVIRLMNKCEDISNKLTKQVTMLTGNGGGWNREQPSLLNQSLSLKPYQKVGLNWLALVHKHGLNGILADEMGLGKTIQAIAFLAYLFQEGNKGPHLIVVPASTIDNWLREVNLWCPSLNVLCYYGSQEERKQIRFNIHNKYEDYNVIVTTYNCAISSSDDRSLFRRLKLNYAIFDEGHMLKNMGSIRYQHLMTINARNRLLLTGTPVQNNLLELMSLLNFVMPHMFSSSTSEIRRMFSSKTKPADEQSIYEKERIAHAKQIIKPFILRRVKEEVLKLLPPKKDRIELCAMSEKQEQLYSGLFNRLKKSINNLEKNTEMCNVMMQLRKMANHPLLHRQYYTPEKLKEMSQLMLKEPTHCEANPDLIFEDMEVMTDFELHVLCKQYQHINSYQLDMDLILDSGKFRALGCILSELKQKGDRVVLFSQFTMMLDILEVLLKHHQHRYLRLDGKTQISERIHLIDEFNTDMDIFVFLLSTKAGGLGINLTSANVVILHDIDCNPYNDKQAEDRCHRVGQTKEVLVIKLISQGTIEESMLKINQQKLKLEQDMTTVDEADEGSMPADIATLLKTSMGL
B5: HIV TAT specific factor 1 (Htatsf1) (protein, UniProt Q8BGC0 1-757)
chain: MSGNNLSGNDEFDEQLRMQELYGGDPKEGDTQNEPSGEAHSLGQPPDDTPYEWDLDKKAWFPKITEDFIATYQANYGFSSDGASSSTANVQDANTKAVEEPPQKEVPETPDSKRKGEKRKAESGWFHVEEDRNTNVYVSGLPPDITVDEFIQLMSKFGIIMRDPQTEEFKVKLYKDDQGNLKGDGLCCYLKKESVELALKLLDEDEIRGYKLHVEVAKFQLKGEYDASKKKKKCKDYKKKLSLQQKQLDWRPERRAGPNRLRHERVVILKNMFHPMDFEDDPLVLNEIREDLRVECSKFGQIRKLLLFDRHPDGVASVSFREPEEADHCIQTLDGRWFGGRQITAQAWDGTTDYQVEETSREREERLRGWEAFLNAPEASRGLRRMDSIAGSERPGPSRMRHFSEHPSMSNMKAQEATTGMAFEETIDENKFEKAEEGGESEGDASEKDAKEGGSDGDHPEREGGEGCSKKENEEGCPERALEPEEGNPQTEAQENGPEREARKKSKMDYEKNGFSKESEDNDLGKESEGEDSLKKESEDDDSEEESEEDSSEKQSQDGSDKEIEENGVKKDVDQDVSDKEFPEDVEKESEENETDKSEFDEGSERVLDEEGSEREFEEDSDEKEEEGDDDEEEVVYERVFDDDSDDIEEEEEADEKECEDADDKEEDNDIDEKLFDDSDEKEDEEDTDGKKDDDASDKVFEDNSNEKLFDEEEGPNEKLFDDSDERGTVGNVKEDGSQSTDSSFALSSSDDDDDEV
B6: mitochondrial ribosomal protein L40 (Mrpl40) (protein, UniProt Q9Z2Q5 47-206)
chain: AEPLRKKKKVDPRKDQAAKDRLKKRIRKLEKASQELIPIEDFITPVRFLDKSRQRPQEEHSPEESERRALLLKRWALFKQQEHEMERDAIRSMLEAQQEALEELKLESAELYAEAIKRDTSLFPFEKEGPHYTPPISNYQAPEGRYNDITKVYTQVEFKR
B7: retinoblastoma protein (Rb) (protein, UniProt P13405 1-921)
chain: MPPKAPRRAAAAEPPPPPPPPPREDDPAQDSGPEELPLARLEFEEIEEPEFIALCQKLKVPDHVRERAWLTWEKVSSVDGILEGYIQKKKELWGICIFIAAVDLDEMPFTFTELQKSIETSVYKFFDLLKEIDTSTKVDNAMSRLLKKYNVLCALYSKLERTCELIYLTQPSSALSTEINSMLVLKISWITFLLAKGEVLQMEDDLVISFQLMLCVVDYFIKFSPPALLREPYKTAAIPINGSPRTPRRGQNRSARIAKQLENDTRIIEVLCKEHECNIDEVKNVYFKNFIPFINSLGIVSSNGLPEVESLSKRYEEVYLKNKDLDARLFLDHDKTLQTDPIDSFETERTPRKNNPDEEANVVTPHTPVRTVMNTIQQLMVILNSASDQPSENLISYFNNCTVNPKENILKRVKDVGHIFKEKFANAVGQGCVDIGVQRYKLGVRLYYRVMESMLKSEEERLSIQNFSKLLNDNIFHMSLLACALEVVMATYSRSTLQHLDSGTDLSFPWILNVLNLKAFDFYKVIESFIKVEANLTREMIKHLERCEHRIMESLAWLSDSPLFDLIKQSKDGEGPDNLEPACPLSLPLQGNHTAADMYLSPLRSPKKRTSTTRVNSAANTETQAASAFHTQKPLKSTSLALFYKKVYRLAYLRLNTLCARLLSDHPELEHIIWTLFQHTLQNEYELMRDRHLDQIMMCSMYGICKVKNIDLKFKIIVTAYKDLPHAAQETFKRVLIREEEFDSIIVFYNSVFMQRLKTNILQYASTRPPTLSPIPHIPRSPYKFSSSPLRIPGGNIYISPLKSPYKISEGLPTPTKMTPRSRILVSIGESFGTSEKFQKINQMVCNSDRVLKRSAEGGNPPKPLKKLRFDIEGADEADGSKHLPAESKFQQKLAEMTSTRTRMQKQRMNESKDVSNKEEK
B8: cardiotrophin-like cytokine factor 1 (Clcf1) (protein, UniProt Q9QZM3 28-225)
chain: LNRTGDPGPGPSIQKTYDLTRYLEHQLRSLAGTYLNYLGPPFNEPDFNPPRLGAETLPRATVNLEVWRSLNDRLRLTQNYEAYSHLLCYLRGLNRQAATAELRRSLAHFCTSLQGLLGSIAGVMATLGYPLPQPLPGTEPAWAPGPAHSDFLQKMDDFWLLKELQTWLWRSAKDFNRLKKKMQPPAASVTLHLEAHGF
B9: ubiquitin associated protein 2-like (Ubap2l) (protein, UniProt Q80X50 1-1107)
chain: MMTSVGTNRARGNWEQPQNQNQTQHKQRPQATAEQIRLAQMISDHNDADFEEKVKQLIDITGKNQDECVIALHDCNGDVNRAINVLLEGNPDTHSWEMVGKKKGVSGQKDGGQTESNEEGKENRDRDRDYSRRRGGPPRRGRGASRGREFRGQENGLDGTKSGGPSGRGTDRGRRGRGRGRGSSGRRGGRFSAQGMGTFNPADYAEPANTDDNYGNSSGNTWNNTGHFEPDDGTRLDFIGVEGSNYPRKFETAPGAWRTATEEWGTEDWNEDLSETKIFTASNVSSVPLPAENVTITAGQRIDLAVLLGKTPSSMENDSSNLDPSQAPSLAQPLVFSNSKQNAISQPASGSTFSHHSMVSMLGKGFGDVGEAKGGSTTGSQFLEQFKTAQALAQLAAQHSQSGSTTTSSWDMGSTTQSPSLVQYDLKSANDSTVHSPFTKRQAFTPSSTMMEVFLQEKPPAVATSTAAPPPPSSPLPSKSTSAPQMSPGSSDNQSSSPQPAQQKLKQQKKKTSLTSKIPALAVEMPGSADISGLNLQFGALQFGSEPVLSDYESTPTTSASSSQAPSSLYTSTASESSSTVSSNQSQESGYQSGPIQSTTYTSQNNAQGPLYEQRSTQTRRYPSSISSSPQKDLTQAKNGFSSVQATQLQTTQSVEGATGSAVKSESPSTSSIPSLNETVPAASLLTTANQHSSSLSGLSHTEEIPNTTTTQHSSALSTQQNTLSSSTSSGRTSTSTLLHTSVESEANLHSSSSTFSTTSSTVSAPPPVVSVSSSLNSGSSLGLSLGSNSTVTASTRSSVATTSGKAPPNLPPGVPPLLPNPYIMAPGLLHAYPPQVYGYDDLQMLQTRFPLDYYSIPFPTPTTPLTGRDGSLASNPYSGDLTKFGRGDASSPAPATTLAQPQQNQTQTHHTTQQTFLNPALPPGYSYTSLPYYTGVPGLPSTFQYGPAVFPVAPTSSKQHGVNVSVNASATPFQQPSGYGSHGYNTGVSVTSSNTGVPDISGSVYSKTQQSFEKQGFHSGTPAASFNLPSALGSGGPINPATAAAYPPAPFMHILTPHQQPHSQILHHHLQQDGQTGSGQRSQTSSIPQKPQTNKSAYNSYSWGAN

Results are given in words; binding and its absence hold for the method and conditions named. Binding seen in cells or lysates may run through a third protein. A yes stands for co-enrichment or nearness to the bait. Other partners may have been found. For some of these results: A no says only that the protein was not detected with the bait.

The target in the first assay is AHR-TAP (murine aryl-hydrocarbon receptor with C-terminal TAP tag) (murine) (UniProt P30561). Description: affinity purification with mass spectrometry; AHR-TAP as bait from lysate of stable Hepa1c1c7 cells treated with DMSO (0.01%) or TCDD (10 nM; 30, 120 or 240 min); IgG Sepharose, AcTEV cleavage, calmodulin resin, 4°C; eluate separated on gel, bands digested and analysed by LC-MS/MS; GFP-TAP as negative control; 3 independent experiments.
For B1, the binding entry was “binds”.
Regarding B2, the binding result was “binds”.
With B3, the binding result is given as “binds”.
Still for that read-out and setting: the same measure for B4: “binds”; for B5: “binds”; for B6: “binds”.
On to B7, for which the binding result is “no binding”.
On the same count and under the same terms, the same measure for B8: “binds”; for B9: “binds”.

For the next assay the target is unchanged. The assay is described as above. This is another data set of the same source.
Regarding “Bcl2-associated athanogene 3 (Bag3) (from UniProt Q9JLV1 1-577)”, the binding entry is “binds”.
